The assay concerns the target T1, Ceramide synthase 2 (mouse) (UniProt Q924Z4).
T1 sequence: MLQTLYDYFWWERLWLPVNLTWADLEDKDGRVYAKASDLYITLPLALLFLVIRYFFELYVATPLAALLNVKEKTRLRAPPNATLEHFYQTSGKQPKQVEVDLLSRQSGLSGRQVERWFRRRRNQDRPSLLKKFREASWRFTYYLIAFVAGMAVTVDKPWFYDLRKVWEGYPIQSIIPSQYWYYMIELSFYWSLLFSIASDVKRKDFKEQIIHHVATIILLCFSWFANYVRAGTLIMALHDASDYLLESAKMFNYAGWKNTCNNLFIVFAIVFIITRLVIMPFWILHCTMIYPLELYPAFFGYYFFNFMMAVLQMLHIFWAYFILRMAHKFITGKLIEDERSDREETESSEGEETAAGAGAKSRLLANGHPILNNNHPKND
Put plainly: affinity purification with mass spectrometry; rabbit anti-CerS2 antibody and protein A agarose on WT mouse liver homogenate (150 mM NaCl, 20 mM Hepes pH 7.5, 1% digitonin, 4 °C), LC-MS/MS, compared with CerS2 null mouse liver; three mice per group.

The chains behind the UniProt entries cited, without tags or fusion partners.
UniProt P00329: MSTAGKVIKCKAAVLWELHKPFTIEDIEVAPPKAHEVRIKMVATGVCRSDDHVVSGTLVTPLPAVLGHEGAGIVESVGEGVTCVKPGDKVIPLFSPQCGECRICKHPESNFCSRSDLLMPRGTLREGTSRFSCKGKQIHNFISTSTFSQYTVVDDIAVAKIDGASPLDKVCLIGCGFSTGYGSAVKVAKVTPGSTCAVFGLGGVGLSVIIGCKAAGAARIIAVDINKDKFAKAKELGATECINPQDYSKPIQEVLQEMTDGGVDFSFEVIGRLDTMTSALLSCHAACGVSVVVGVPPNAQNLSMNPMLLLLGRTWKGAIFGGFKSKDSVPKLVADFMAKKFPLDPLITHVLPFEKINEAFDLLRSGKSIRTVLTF
UniProt O35488: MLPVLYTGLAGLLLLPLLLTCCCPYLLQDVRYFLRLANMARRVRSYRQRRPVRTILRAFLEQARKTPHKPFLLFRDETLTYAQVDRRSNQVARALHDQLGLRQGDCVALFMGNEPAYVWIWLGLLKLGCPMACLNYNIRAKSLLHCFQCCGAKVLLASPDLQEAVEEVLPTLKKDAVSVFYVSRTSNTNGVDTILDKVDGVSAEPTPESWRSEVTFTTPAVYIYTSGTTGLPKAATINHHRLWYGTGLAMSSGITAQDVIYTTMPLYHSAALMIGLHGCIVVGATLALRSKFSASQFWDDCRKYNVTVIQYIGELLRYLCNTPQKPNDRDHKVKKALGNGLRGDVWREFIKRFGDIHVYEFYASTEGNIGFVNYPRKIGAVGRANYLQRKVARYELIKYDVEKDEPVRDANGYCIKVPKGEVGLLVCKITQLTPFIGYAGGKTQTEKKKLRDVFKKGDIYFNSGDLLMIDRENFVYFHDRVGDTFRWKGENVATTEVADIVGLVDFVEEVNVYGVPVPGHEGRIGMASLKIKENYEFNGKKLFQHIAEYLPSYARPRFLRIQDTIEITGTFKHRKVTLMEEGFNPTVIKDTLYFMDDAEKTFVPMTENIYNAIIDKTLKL

No constants are given. Whether binding was seen depends on the method and setting. In cells and extracts the contact can be indirect. A yes stands for co-enrichment or nearness to the bait. Other partners may have been found.

From PMC8931434 come the findings set out here.

As for “Alcohol dehydrogenase 1 (from UniProt P00329 1-375)”, the binding result was “binds”.

Turning to “Very long-chain acyl-CoA synthetase (from UniProt O35488 1-620)”, the binding result is on record as “binds”.
